Plain letter strings leave the end groups untold. Strings that start with PEPTIDE1 are HELM notation: dots part the residues, brackets hold end groups and non-standard residues.
Experiment: peptide made by a vendor (Fmoc solid-phase peptide synthesis; 2-chlorotrityl resin)
Settings: whole synthesis, 220 nm

| Substance | purity (crude or final not stated) [%] |
| --- | --- |
| AQTITGKT (Oligopeptide #1 AQTITGKT) | 97.6 |
| PEPTIDE1{A.Q.T.P.T.G.K.T}$$$$V2.0 | 97.6 |
| PEPTIDE1{A.Q.T.M.T.G.K.T}$$$$V2.0 | 96.5 |
| AQTLTGKT | 97.36 |
| PEPTIDE1{A.Q.T.A.T.G.K.T}$$$$V2.0 | 97.8 |
| PEPTIDE1{A.Q.T.V.T.G.K.T}$$$$V2.0 | 97.6 |

From US20220204560A1 (L-BASE CO., LTD., priority 2019, published 2022)
